The exact form of at least one protein or probe is not confirmed. At least one result comes from cells or an extract, where the contact may be indirect.
Columns and labels:
[1] = biological target: Ku80 (endogenous, U87MG or 1321N1 lysate) (UniProt P13010); assay: pull-down (streptavidin aptoprecipitation, LC-MS/MS, Western blot); details: U87MG and 1321N1 lysate, 100 nM aptamer; Pull-down: lysate in PBS with 0.1% Triton X-100, 2.5 mg/ml protein, 100 nM biotin aptamer, 45 min at 4 C, beads washed in 0.1 M PBS pH 7.4. Kd values; protein in an extract; label: 5' biotin; folded or branched DNA
[2] = biological target: Ku70 (endogenous, U87MG or 1321N1 lysate) (UniProt P12956); assay: as above; details: U87MG and 1321N1 lysate, 100 nM aptamer; Pull-down: lysate in PBS with 0.1% Triton X-100, 2.5 mg/ml protein, 100 nM biotin aptamer, 45 min at 4 C, beads washed in 0.1 M PBS pH 7.4. Kd values; protein in an extract; label: 5' biotin; folded or branched DNA

Chains of the proteins cited; added tags and fusions are not shown. Lines headed by an entry give the natural chain unless they say otherwise; changes in a name come on top.
UniProt P13010: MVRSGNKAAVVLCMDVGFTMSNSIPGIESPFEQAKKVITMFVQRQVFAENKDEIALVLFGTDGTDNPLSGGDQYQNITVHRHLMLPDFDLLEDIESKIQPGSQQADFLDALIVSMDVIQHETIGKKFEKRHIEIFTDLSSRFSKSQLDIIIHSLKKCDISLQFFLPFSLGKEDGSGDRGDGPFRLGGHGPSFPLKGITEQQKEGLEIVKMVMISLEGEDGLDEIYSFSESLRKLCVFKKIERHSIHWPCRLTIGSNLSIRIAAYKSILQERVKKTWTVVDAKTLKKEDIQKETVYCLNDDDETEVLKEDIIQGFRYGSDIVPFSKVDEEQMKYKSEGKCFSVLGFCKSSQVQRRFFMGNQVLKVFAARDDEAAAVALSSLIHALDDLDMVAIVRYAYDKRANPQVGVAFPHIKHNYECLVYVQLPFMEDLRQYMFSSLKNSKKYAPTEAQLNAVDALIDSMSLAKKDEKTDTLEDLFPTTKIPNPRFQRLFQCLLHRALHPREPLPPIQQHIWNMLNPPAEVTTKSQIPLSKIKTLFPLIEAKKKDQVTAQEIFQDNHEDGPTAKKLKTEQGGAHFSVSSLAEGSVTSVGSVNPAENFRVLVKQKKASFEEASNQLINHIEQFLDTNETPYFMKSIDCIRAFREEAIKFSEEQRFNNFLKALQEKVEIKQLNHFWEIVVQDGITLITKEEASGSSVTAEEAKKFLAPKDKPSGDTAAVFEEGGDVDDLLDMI
UniProt P12956: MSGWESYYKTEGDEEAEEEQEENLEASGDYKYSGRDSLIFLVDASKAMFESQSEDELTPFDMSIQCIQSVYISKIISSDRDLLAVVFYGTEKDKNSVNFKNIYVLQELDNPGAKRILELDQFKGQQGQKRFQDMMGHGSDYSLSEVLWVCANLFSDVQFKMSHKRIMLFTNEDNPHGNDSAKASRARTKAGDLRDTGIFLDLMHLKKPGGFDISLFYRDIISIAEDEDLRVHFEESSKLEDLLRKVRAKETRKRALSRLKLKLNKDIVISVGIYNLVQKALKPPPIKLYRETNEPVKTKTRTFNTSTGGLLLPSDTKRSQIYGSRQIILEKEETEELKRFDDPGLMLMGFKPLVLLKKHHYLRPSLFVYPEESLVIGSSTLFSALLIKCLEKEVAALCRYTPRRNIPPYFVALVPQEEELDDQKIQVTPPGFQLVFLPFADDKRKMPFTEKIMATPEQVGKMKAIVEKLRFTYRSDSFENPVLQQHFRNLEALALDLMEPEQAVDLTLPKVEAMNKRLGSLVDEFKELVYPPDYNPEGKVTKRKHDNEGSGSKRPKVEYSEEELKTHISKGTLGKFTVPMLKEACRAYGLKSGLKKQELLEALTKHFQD

**Q.** What does the source list for “ACGTTACTCTTGCAACACCCAAACTTTAATAGCCTCTTATAGTTC [SA44 DNA]”?
**A.** binding result [1]: binds; binding result [2]: binds

**Q.** Does “ACGTTACTCTTGCAACACAAACTTTAATAGCCTCTTATAGTTC [SA43 DNA]” bind [1]?
**A.** Result: binds

**Q.** Does “ACGTTACTCTTGCAACACAAACTTTAATAGCCTCTTATAGTTC [SA43 DNA]” bind [2]?
**A.** Result: binds

— paper PMC4529171
